Experimental data taken from the supplement of paper PMC6411743.
± gives the standard deviation of the averaged measurements. This is one part of the list.

Amino acid sequences for entries named in this document (tags omitted). A change or cut given only in a name is not applied to a line headed by its entry.
UniProt P62633: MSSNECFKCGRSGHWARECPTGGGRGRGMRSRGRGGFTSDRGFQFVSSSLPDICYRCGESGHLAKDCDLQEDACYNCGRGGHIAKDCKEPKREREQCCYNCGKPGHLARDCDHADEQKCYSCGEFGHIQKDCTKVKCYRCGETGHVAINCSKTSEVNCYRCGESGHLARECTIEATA
UniProt P84103: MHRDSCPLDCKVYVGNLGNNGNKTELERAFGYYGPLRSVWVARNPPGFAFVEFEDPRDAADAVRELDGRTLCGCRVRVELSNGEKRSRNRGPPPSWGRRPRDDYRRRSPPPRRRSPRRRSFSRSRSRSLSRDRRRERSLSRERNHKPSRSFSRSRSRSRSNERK
UniProt P68036, whole entry: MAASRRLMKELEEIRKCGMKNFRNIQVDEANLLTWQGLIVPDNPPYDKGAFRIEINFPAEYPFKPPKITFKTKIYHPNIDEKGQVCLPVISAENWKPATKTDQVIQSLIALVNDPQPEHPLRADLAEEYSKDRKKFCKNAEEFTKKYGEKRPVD
UniProt P56589: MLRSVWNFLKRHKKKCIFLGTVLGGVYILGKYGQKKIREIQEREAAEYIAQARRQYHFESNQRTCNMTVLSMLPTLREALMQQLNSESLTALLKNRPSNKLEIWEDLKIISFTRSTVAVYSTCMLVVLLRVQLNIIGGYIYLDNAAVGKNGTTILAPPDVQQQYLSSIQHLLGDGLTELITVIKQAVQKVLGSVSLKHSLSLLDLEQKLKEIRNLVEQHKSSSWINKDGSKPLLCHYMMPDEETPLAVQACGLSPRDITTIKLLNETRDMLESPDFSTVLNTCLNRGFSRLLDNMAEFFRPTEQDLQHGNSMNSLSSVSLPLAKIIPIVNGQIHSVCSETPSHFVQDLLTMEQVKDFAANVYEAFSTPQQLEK
UniProt P51948: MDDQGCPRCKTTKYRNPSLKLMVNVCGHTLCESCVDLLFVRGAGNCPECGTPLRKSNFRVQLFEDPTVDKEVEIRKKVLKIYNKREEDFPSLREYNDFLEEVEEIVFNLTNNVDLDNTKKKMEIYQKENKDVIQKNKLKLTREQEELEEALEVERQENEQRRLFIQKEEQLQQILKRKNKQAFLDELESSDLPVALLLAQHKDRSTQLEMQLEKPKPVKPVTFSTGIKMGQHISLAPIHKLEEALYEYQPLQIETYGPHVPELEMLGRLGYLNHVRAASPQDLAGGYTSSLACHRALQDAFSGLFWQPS
UniProt P78344: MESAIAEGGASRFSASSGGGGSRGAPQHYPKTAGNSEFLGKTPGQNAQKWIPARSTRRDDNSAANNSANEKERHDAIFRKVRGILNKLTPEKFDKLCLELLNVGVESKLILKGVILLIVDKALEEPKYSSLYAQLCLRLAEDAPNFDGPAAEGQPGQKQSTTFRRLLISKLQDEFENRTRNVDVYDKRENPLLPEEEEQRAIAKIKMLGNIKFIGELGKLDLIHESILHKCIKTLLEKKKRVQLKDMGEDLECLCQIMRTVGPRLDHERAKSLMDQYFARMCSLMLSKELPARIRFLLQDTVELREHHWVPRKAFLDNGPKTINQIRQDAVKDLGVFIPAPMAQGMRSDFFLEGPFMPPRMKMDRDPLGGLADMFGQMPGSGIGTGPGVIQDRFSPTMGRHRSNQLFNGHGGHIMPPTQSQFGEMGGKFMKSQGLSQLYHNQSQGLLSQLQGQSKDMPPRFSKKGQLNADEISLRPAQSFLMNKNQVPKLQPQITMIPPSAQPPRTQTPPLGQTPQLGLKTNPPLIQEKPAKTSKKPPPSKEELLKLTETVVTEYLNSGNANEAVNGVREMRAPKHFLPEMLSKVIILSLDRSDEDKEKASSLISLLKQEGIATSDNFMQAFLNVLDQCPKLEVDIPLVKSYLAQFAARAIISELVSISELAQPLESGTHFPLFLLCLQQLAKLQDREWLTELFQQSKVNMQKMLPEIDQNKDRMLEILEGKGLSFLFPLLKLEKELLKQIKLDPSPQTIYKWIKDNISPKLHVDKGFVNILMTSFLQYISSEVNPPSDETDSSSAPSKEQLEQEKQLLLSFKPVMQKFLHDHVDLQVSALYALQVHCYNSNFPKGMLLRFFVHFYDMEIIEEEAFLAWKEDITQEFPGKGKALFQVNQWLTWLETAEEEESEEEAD
UniProt P51970, whole entry: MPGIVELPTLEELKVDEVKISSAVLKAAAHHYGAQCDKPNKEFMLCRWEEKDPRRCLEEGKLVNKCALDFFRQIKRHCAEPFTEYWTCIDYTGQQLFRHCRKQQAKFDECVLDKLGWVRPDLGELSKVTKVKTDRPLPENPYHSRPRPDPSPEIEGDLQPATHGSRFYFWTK
UniProt P55072, whole entry, looked up: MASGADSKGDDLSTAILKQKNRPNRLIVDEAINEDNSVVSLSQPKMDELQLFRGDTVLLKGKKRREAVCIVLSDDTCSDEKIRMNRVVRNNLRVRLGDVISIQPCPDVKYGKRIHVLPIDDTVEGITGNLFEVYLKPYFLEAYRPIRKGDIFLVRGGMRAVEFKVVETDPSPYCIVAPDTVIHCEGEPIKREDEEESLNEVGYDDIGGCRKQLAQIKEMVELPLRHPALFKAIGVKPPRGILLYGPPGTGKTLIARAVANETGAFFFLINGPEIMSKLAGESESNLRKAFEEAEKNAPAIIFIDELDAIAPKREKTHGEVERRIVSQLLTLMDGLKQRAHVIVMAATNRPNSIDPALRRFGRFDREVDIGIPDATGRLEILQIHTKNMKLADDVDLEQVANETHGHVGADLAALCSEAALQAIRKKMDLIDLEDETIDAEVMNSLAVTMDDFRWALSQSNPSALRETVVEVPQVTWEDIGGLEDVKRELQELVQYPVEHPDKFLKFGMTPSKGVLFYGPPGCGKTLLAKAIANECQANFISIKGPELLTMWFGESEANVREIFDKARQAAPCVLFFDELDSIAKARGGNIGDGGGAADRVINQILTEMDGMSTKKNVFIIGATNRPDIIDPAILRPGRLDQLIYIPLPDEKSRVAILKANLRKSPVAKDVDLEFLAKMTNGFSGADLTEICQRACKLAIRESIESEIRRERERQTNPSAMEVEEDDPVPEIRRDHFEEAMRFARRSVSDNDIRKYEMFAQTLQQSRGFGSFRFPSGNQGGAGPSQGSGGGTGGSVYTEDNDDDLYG

Compound: Nc1nc2c(ncn2[C@@H]2O[C@H](COP(=O)(O)OP(=O)(O)OP(=O)(O)O)[C@@H](O)[C@H]2O)c(=O)[nH]1 [guanosine triphosphate]
Test: NP40-soluble protein abundance relative to vehicle (solubility fold change) (ratio); higher = more soluble protein in presence of GTP
Method in brief: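 Data come from three independent experiments in which Dounce-homogenised Jurkat crude lysate was treated at eight concentrations from 0.1 to 10 mM. Treatment ran 10 min at room temperature and then 3 min at 37 °C, after which 0.8% NP40 and benzonase were added for 60 min at 4 °C before ultracentrifugation. The supernatant underwent TMT labelling and LC-MS/MS, and vsn-normalised intensities were expressed as fold change against the detergent-processed vehicle in each replicate.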

UniProt P62633 and related entries
NP40-soluble protein abundance (concentration: 0.1mM): 1.04 ± 0.15
NP40-soluble protein abundance (concentration: 0.5mM): 1.03 ± 0.14
NP40-soluble protein abundance (concentration: 1mM): 1.03 ± 0.14
NP40-soluble protein abundance (concentration: 2mM): 0.982 ± 0.11
NP40-soluble protein abundance (concentration: 4mM): 0.996 ± 0.15
NP40-soluble protein abundance (concentration: 6mM): 1.01 ± 0.15
NP40-soluble protein abundance (concentration: 8mM): 1.06 ± 0.18
NP40-soluble protein abundance (concentration: 10mM): 1.04 ± 0.19

UniProt P84103 and related entries
NP40-soluble protein abundance (concentration: 0.1mM): 1 ± 0.04
NP40-soluble protein abundance (concentration: 0.5mM): 1.09 ± 0.074
NP40-soluble protein abundance (concentration: 1mM): 1.11 ± 0.044
NP40-soluble protein abundance (concentration: 2mM): 1.03 ± 0.068
NP40-soluble protein abundance (concentration: 4mM): 0.987 ± 0.041
NP40-soluble protein abundance (concentration: 6mM): 1.06 ± 0.067
NP40-soluble protein abundance (concentration: 8mM): 1.1 ± 0.013
NP40-soluble protein abundance (concentration: 10mM): 1.11 ± 0.053

UniProt P68036 and related entries
NP40-soluble protein abundance (concentration: 0.1mM): 0.857 ± 0.083
NP40-soluble protein abundance (concentration: 0.5mM): 0.834 ± 0.037
NP40-soluble protein abundance (concentration: 1mM): 0.99 ± 0.077
NP40-soluble protein abundance (concentration: 2mM): 0.961 ± 0.041
NP40-soluble protein abundance (concentration: 4mM): 0.909 ± 0.087
NP40-soluble protein abundance (concentration: 6mM): 0.951 ± 0.081
NP40-soluble protein abundance (concentration: 8mM): 0.877 ± 0.16
NP40-soluble protein abundance (concentration: 10mM): 0.976 ± 0.15

PEX3 (UniProt P56589)
NP40-soluble protein abundance (concentration: 0.1mM): 0.988 ± 0.025
NP40-soluble protein abundance (concentration: 0.5mM): 1.05 ± 0.042
NP40-soluble protein abundance (concentration: 1mM): 1 ± 0.017
NP40-soluble protein abundance (concentration: 2mM): 0.923 ± 0.042
NP40-soluble protein abundance (concentration: 4mM): 0.879 ± 0.03
NP40-soluble protein abundance (concentration: 6mM): 0.951 ± 0.019
NP40-soluble protein abundance (concentration: 8mM): 0.9369 ± 0.00049
NP40-soluble protein abundance (concentration: 10mM): 0.8668 ± 0.0034

UniProt P51948 and related entries
NP40-soluble protein abundance (concentration: 0.1mM): 1 ± 0.066
NP40-soluble protein abundance (concentration: 0.5mM): 1.02 ± 0.035
NP40-soluble protein abundance (concentration: 1mM): 1.04 ± 0.021
NP40-soluble protein abundance (concentration: 2mM): 1.04 ± 0.043
NP40-soluble protein abundance (concentration: 4mM): 1.03 ± 0.024
NP40-soluble protein abundance (concentration: 6mM): 1.07 ± 0.065
NP40-soluble protein abundance (concentration: 8mM): 1.01 ± 0.022
NP40-soluble protein abundance (concentration: 10mM): 1.03 ± 0.062

UniProt P78344 and related entries
NP40-soluble protein abundance (concentration: 0.1mM): 0.948 ± 0.036
NP40-soluble protein abundance (concentration: 0.5mM): 0.96 ± 0.053
NP40-soluble protein abundance (concentration: 1mM): 0.963 ± 0.015
NP40-soluble protein abundance (concentration: 2mM): 0.98 ± 0.051
NP40-soluble protein abundance (concentration: 4mM): 1.01 ± 0.033
NP40-soluble protein abundance (concentration: 6mM): 1.05 ± 0.046
NP40-soluble protein abundance (concentration: 8mM): 1.05 ± 0.035
NP40-soluble protein abundance (concentration: 10mM): 1.09 ± 0.063

NDUFA8 (UniProt P51970)
NP40-soluble protein abundance (concentration: 0.1mM): 0.912 ± 0.098
NP40-soluble protein abundance (concentration: 0.5mM): 0.913 ± 0.04
NP40-soluble protein abundance (concentration: 1mM): 1.05 ± 0.14
NP40-soluble protein abundance (concentration: 2mM): 1.09 ± 0.071
NP40-soluble protein abundance (concentration: 4mM): 1.08 ± 0.14
NP40-soluble protein abundance (concentration: 6mM): 1.08 ± 0.089
NP40-soluble protein abundance (concentration: 8mM): 1.03 ± 0.1
NP40-soluble protein abundance (concentration: 10mM): 1.14 ± 0.15

UniProt P55072
NP40-soluble protein abundance (concentration: 0.1mM): 0.982 ± 0.03
NP40-soluble protein abundance (concentration: 0.5mM): 1.05 ± 0.064
NP40-soluble protein abundance (concentration: 1mM): 0.999 ± 0.073
NP40-soluble protein abundance (concentration: 2mM): 1.02 ± 0.12
NP40-soluble protein abundance (concentration: 4mM): 1.03 ± 0.11
NP40-soluble protein abundance (concentration: 6mM): 1.03 ± 0.14
NP40-soluble protein abundance (concentration: 8mM): 1 ± 0.1
NP40-soluble protein abundance (concentration: 10mM): 1 ± 0.11
